Experimental data taken from publication PMC10975076, “Trypanocidal and Anti-Inflammatory Effects of Three ent-Kaurane Diterpenoids from Gymnocoronis spilanthoides var. subcordata (Asteraceae)” (Pharmaceutics, 2024).

Tested on: splenocytes obtained from BALB/c mice
Assay: Cytotoxicity assay on splenocytes, propidium iodide flow cytometry
Type: cell-based
Details: selectivity index; for SI Amastigotes: ratio between CC50 and IC50 (amastigotes); for SI Epimastigotes: ratio between CC50 and IC50 (epimastigotes)
Protocol: The cytotoxicity of the isolated compounds was evaluated using splenocytes obtained from BALB/c mice. Primary cell cultures (1.5 × 10^5) were incubated with different concentrations of the isolated phytochemicals (5–200 μg/mL) in RPMI medium supplemented with 10% fetal bovine serum. After 48 h of incubation at 37 °C (5% CO2), the cells were harvested, washed once with PBS and stained with 2.5 μg/mL propidium iodide (PI) for 5 min at room temperature. Subsequently, cell death was assessed via flow cytometry using a BD FACSaria II cytometer. Cells incubated with DMSO were used as 100% viability control, and the death percentage was calculated according to the following formula: {1 − [(% PI^− cells treated)/(% PI^− cells of the viability control)] × 100}.

| SMILES | SI Amastigotes | SI Epimastigotes |
| --- | --- | --- |
| C=C1C(=O)[C@@]23CC[C@H]4[C@@](C)(CCC[C@@]4(C)C(=O)O)[C@@H]2[C@@H](O)C[C@@H]1C3 (single isomer, unassigned; ent-11) [Compound 3, ent-11α-hydroxy-15-oxo-kaur-16-en-19-oic acid] | 0.2 | 3.1 |
| C=C1C(=O)[C@@]23CC[C@@H]4[C@](C)(C(=O)O)CCC[C@@]4(C)[C@]2(O)[C@@H](O)C[C@@H]1C3 (single isomer, unassigned; ent-9) [Compound 1, ent-9α,11α-dihydroxy-15-oxo-kaur-16-en-19-oic acid] | 52.7 | 30.3 |
| C[C@H]1C(=O)[C@@]23CC[C@H]4[C@@](C)(CCC[C@@]4(C)C(=O)O)[C@@H]2[C@@H](O)C[C@@H]1C3 [Compound 2, (16R)-ent-11α-hydroxy-15-oxokauran-19-oic acid] | 1.2 | 1.5 |
| O=C(Cn1ccnc1[N+](=O)[O-])NCc1ccccc1 [Benznidazole, benznidazole, reference compound] | 42.4 | 19.6 |
